Data published in paper PMC7176845.
Results are given in words; binding and its absence hold for the method and conditions named. Binding seen in cells or lysates may run through a third protein. Some binding calls cover weakened binding; strength is not graded here.

Chains of the proteins cited; added tags and fusions are not shown. Lines headed by an entry give the natural chain unless they say otherwise; changes in a name come on top.
UniProt P09874: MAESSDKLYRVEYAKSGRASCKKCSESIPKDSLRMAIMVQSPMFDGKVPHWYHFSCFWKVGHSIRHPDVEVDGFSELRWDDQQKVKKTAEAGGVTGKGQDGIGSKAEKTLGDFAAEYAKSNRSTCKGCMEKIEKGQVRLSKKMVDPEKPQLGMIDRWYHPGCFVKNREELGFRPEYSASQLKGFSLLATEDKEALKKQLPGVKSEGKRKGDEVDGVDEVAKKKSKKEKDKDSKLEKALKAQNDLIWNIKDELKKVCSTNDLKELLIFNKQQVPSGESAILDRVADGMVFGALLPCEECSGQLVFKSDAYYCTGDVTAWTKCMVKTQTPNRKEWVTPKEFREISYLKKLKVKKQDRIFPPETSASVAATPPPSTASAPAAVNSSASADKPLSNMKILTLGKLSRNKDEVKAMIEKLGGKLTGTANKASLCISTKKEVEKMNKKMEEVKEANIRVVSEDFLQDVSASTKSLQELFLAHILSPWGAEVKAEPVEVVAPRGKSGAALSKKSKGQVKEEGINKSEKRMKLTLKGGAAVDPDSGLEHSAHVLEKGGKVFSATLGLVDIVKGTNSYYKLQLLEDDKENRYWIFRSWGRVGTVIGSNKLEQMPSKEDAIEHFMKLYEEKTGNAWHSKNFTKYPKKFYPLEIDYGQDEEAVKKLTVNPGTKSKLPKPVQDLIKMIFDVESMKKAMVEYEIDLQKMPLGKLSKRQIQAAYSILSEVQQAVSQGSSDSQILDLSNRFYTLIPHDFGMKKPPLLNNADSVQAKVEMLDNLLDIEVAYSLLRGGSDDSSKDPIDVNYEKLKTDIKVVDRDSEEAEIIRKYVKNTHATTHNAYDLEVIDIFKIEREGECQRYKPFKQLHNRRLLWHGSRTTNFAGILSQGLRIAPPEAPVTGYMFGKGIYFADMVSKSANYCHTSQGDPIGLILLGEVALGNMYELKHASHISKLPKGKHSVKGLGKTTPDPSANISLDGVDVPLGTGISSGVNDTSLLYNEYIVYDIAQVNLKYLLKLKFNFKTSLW
UniProt Q9HAU4: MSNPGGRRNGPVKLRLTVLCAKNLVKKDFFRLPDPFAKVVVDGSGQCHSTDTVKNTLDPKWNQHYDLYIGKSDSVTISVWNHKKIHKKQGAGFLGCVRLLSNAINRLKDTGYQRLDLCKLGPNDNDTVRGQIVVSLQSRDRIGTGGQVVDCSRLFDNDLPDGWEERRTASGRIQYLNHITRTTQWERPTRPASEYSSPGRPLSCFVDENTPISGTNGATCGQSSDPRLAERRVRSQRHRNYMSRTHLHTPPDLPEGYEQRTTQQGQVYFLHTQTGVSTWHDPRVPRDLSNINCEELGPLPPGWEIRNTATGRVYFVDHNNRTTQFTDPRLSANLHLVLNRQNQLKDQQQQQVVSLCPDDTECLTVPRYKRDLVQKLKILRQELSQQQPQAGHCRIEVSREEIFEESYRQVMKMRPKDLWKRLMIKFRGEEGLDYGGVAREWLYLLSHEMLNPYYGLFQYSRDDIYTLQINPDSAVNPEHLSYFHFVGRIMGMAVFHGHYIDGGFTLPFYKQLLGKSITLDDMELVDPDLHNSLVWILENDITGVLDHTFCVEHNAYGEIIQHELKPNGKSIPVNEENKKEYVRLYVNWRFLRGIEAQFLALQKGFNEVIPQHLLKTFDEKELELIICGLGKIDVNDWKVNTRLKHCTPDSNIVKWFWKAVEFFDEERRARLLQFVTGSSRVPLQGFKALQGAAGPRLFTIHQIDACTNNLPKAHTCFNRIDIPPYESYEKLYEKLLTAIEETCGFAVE

Experiments:
Myc‐PARP1 = Myc‐PARP1 (UniProt P09874); experiment: co-IP; 293T cells co-transfected with Flag-Smurf2 (or C716G) and Myc-PARP1 for 48 h; anti-Flag IP and anti-Myc blot, or anti-Myc IP and anti-Flag blot (with MG132 25 μmol/L or DMSO 8 h; interaction enhanced by MG132)
Flag‐Smurf2 = Flag‐Smurf2 (UniProt Q9HAU4); experiment: as above
Flag‐Smurf2 (C716G) = Flag‐Smurf2 (C716G) (UniProt Q9HAU4); experiment: as above
[1] = biological target: poly(ADP‐ribose) polymerase‐1 (PARP1) (human (endogenous in HUVEC and 293T)) (UniProt P09874); experiment: co-IP; endogenous proteins; anti-Smurf2 or anti-PARP1 antibody or control IgG with Protein A/G magnetic beads, 4°C 12 h, lysis buffer with 1% NP-40, 137 mmol/L NaCl, pH 7.8; blot with anti-PARP1 or anti-Smurf2; HUVEC with or without H2O2 500 μmol/L 12 h (interaction enhanced by H2O2)
[2] = biological target: Smurf2 (human (endogenous in HUVEC and 293T)) (UniProt Q9HAU4); experiment: as above

Flag‐Smurf2 (from UniProt Q9HAU4 1-748)
binding (Myc‐PARP1): binds

Myc‐PARP1 (from UniProt P09874 1-1014)
binding (Flag‐Smurf2): binds | binding (Flag‐Smurf2 (C716G)): binds

Smurf2 (from UniProt Q9HAU4 1-748)
binding [1]: binds

poly(ADP‐ribose) polymerase‐1 (PARP1) (from UniProt P09874 1-1014)
binding [2]: binds
